Measurements from US20090111753A1, “Nogo-A Polypeptide Fragments, Variant Nogo Receptor-1 Polypeptides, and Uses Thereof” (Yale University, priority 2004, published 2009).
Results are given in words; binding and its absence hold for the method and conditions named. Some results given as binding are weak or reduced against the parent protein; the word gives no strength.

Tests used:
Experiment in all cases: AP-ligand binding, COS-7
[1] = biological target: T1, human NgR1 alanine mutant 202, 205, 250 (human) (UniProt Q9BZR6)
T1 sequence: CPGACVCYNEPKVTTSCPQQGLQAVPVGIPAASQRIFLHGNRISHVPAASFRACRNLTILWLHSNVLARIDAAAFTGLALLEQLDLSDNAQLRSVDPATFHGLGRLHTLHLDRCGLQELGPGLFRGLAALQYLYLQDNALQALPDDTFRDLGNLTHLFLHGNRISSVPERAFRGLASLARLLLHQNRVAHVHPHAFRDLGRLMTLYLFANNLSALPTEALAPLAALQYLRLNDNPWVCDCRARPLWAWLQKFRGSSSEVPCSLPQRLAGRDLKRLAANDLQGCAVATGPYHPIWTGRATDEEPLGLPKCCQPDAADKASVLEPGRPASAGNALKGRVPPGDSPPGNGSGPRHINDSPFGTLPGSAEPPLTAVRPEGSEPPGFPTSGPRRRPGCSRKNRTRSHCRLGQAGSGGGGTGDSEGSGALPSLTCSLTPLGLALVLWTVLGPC

[2] = biological target: T2, human NgR1 alanine mutant 127, 151 (human) (UniProt Q9BZR6)
T2 sequence: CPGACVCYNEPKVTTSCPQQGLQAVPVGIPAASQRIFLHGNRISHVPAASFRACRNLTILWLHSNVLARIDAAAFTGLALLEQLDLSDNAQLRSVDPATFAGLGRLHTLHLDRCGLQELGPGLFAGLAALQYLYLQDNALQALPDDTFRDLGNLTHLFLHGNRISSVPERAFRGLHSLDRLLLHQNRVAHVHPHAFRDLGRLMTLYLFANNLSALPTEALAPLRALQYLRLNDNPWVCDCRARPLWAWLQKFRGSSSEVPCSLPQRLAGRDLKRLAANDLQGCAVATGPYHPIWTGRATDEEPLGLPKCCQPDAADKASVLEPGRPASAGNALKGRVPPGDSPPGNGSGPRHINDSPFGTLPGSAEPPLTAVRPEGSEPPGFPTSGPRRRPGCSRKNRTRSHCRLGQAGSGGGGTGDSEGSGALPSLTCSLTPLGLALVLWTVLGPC

[3] = biological target: T3, human NgR1 alanine mutant 216, 218, 220 (human) (UniProt Q9BZR6)
T3 sequence: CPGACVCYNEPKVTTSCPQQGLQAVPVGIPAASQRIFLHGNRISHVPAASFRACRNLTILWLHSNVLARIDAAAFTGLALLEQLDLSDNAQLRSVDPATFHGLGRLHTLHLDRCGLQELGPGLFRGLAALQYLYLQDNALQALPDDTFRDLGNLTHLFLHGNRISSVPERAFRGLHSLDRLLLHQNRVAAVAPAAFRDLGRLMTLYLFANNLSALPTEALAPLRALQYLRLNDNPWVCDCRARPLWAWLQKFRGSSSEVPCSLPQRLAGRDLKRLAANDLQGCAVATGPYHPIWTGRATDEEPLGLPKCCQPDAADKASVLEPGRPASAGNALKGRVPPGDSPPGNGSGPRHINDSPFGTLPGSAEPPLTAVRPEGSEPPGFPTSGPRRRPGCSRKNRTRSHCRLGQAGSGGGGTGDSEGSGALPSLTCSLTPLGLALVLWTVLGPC

[4] = biological target: T4, human NgR1 mutant D259N (human) (UniProt Q9BZR6)
T4 sequence: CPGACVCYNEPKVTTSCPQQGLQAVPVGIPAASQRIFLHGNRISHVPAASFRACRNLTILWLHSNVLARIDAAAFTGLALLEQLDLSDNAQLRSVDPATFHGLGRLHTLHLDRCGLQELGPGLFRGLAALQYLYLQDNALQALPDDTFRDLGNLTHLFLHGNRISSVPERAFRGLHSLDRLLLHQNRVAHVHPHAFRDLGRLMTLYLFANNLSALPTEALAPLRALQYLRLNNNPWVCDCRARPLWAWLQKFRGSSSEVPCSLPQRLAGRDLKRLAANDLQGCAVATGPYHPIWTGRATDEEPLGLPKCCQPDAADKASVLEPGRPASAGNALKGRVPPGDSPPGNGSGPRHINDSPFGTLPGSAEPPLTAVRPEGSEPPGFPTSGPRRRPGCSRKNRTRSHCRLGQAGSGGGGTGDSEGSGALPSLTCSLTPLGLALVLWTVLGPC

[5] = biological target: T5, human NgR1 alanine mutant 92 (human) (UniProt Q9BZR6)
T5 sequence: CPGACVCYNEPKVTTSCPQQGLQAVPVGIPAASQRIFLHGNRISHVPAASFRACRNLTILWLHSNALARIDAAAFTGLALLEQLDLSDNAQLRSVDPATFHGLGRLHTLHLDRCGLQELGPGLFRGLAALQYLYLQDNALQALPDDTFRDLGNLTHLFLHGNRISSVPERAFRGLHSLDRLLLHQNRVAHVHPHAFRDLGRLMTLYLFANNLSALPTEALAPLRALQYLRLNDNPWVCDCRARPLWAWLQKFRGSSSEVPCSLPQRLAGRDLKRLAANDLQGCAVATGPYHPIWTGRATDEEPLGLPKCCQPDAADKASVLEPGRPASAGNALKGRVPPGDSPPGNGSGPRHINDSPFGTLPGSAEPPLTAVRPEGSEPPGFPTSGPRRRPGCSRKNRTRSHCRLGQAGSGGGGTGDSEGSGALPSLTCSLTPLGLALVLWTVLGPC

[6] = biological target: T6, human NgR1 alanine mutant 292, 296, 297, 300 (human) (UniProt Q9BZR6)
T6 sequence: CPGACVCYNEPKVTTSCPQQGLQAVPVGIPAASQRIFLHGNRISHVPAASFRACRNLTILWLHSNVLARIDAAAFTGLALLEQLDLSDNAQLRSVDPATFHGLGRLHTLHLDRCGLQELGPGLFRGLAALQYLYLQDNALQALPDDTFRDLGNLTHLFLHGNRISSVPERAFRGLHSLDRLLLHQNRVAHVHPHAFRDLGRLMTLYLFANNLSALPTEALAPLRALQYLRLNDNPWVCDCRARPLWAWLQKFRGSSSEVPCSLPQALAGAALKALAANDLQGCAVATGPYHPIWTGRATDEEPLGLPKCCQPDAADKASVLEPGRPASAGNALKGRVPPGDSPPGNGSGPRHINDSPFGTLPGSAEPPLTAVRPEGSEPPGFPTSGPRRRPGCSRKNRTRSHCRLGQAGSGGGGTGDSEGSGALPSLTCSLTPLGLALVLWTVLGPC

Measured: binding

B1: AP-Nogo-66 (ligand, UniProt Q9NQC3 1055-1120, looked up)
chain: RIYKGVIQAIQKSDEGHPFRAYLESEVAISEELVQKYSNSALGHVNCTIKELRRLFLVDDLVDSLK
notes: domain: Nogo-66; construct described elsewhere (Fournier 2001); also called AP-Ng66; Ng66; not shown: alkaline phosphatase (AP); construct described elsewhere
binds: all assays above

B2: AP-fused Amino-Nogo fragment B4C (a.a. 950-1018) (ligand)
chain: LLPPDVSALATQAEIESIVKPKVLVKEAEKKLPSDTEKEDRSPSAIFSAELSKTSVVDLLYWRDIKKTG
notes: also called AmNg B4C; AP-B4C; not shown: alkaline phosphatase (AP), vector pcAP6
binds: all assays above
